These are yes or no findings as the source states them, for the method shown. In cells and extracts the contact can be indirect. Some results given as binding are weak or reduced against the parent protein; the word gives no strength. For part of these data: Where a sequence is shown, tags or fusion partners need not be part of it.
Key:
[1] = biological target: T1, HA-XBP1u (unspliced X-box-binding protein 1, from pCMV5-HA-XBP1u) (UniProt P17861); test: co-IP; HEK293 cells co-transfected with HA-XBP1u and FLAG-HDAC3 plasmids; immunoprecipitation with anti-HA antibody, Western blot with anti-FLAG and anti-HA; 1 mg lysate per immunoprecipitation
T1 sequence: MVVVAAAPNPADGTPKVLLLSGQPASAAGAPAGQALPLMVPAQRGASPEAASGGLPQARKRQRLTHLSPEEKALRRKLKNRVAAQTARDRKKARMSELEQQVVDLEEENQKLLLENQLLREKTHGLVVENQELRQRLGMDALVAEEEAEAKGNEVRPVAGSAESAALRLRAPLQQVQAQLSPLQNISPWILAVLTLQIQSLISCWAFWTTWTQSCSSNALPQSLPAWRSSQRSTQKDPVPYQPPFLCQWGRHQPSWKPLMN

Protein sequences, listed by entry. Tags and fused reporters are not part of them.
UniProt O15379: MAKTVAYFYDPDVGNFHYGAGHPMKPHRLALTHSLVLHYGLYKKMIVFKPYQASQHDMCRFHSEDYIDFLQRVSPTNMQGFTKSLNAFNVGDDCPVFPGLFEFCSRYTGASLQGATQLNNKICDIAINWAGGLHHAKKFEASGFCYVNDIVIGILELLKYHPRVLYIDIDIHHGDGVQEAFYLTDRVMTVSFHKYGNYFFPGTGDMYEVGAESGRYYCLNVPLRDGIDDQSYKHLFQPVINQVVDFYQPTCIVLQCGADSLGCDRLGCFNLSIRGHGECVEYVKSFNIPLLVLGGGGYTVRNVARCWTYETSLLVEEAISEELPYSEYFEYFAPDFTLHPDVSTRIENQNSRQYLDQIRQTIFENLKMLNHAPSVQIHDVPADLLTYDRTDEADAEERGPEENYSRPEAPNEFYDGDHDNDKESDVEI
UniProt P31749: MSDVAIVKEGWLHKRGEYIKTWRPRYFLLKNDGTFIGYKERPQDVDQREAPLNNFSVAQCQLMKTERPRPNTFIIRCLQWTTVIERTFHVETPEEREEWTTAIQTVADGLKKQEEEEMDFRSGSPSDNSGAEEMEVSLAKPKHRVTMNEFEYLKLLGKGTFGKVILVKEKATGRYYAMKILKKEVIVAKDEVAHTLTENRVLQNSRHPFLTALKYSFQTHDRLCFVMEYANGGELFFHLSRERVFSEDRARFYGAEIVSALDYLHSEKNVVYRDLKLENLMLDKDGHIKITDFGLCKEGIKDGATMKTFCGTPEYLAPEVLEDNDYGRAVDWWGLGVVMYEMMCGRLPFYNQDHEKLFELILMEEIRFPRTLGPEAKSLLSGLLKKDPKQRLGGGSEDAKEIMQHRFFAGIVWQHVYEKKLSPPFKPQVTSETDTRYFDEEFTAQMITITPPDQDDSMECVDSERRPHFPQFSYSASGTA

[2] = biological target: T2, endogenous unspliced X-box-binding protein 1 (XBP1u) (human (endogenous in HUVECs)) (UniProt P17861); test: co-IP; endogenous proteins; immunoprecipitation with anti-XBP1u antibody from static and disturbed flow (4 h)-treated cells, Western blot with anti-HDAC3, anti-Akt1 and anti-XBP1u; association increased by disturbed flow
T2 sequence: T1 sequence

| Substance | binding [1] | binding [2] |
| --- | --- | --- |
| FLAG-HDAC3 (histone deacetylase 3, from pShuttle2-FLAG-HDAC3) (from UniProt O15379 1-428) | binds |  |
| endogenous Akt1 (from UniProt P31749 1-480) |  | binds |
| endogenous histone deacetylase 3 (HDAC3) (from UniProt O15379 1-428) |  | binds |

From publication PMC4215241
